Measurements published in publication PMC3285591.

Molecular target: GST-ΔPDZ18E6 (HPV-18) (UniProt P06463)
Test: pull-down; GST-wt18E6 or GST-ΔPDZ18E6 incubated with extracts of HEK293 cells transfected with HA-tagged Dlg, alone or with Myc-tagged SGEF; western blot with anti-HA and anti-Myc; only the target purified

B1: Myc-tagged wtSGEF (protein, UniProt Q96DR7 1-871)
chain: MDGESEVDFSSNSITPLWRRRSIPQPHQVLGRSKPRPQSYQSPNGLLITDFPVEDGGTLLAAQIPAQVPTASDSRTVHRSPLLLGAQRRAVANGGTASPEYRAASPRLRRPKSPKLPKAVPGGSPKSPANGAVTLPAPPPPPVLRPPRTPNAPAPCTPEEDLTGLTASPVPSPTANGLAANNDSPGSGSQSGRKAKDPERGLFPGPQKSSSEQKLPLQRLPSQENELLENPSVVLSTNSPAALKVGKQQIIPKSLASEIKISKSNNQNVEPHKRLLKVRSMVEGLGGPLGHAGEESEVDNDVDSPGSLRRGLRSTSYRRAVVSGFDFDSPTSSKKKNRMSQPVLKVVMEDKEKFSSLGRIKKKMLKGQGTFDGEENAVLYQNYKEKALDIDSDEESEPKEQKSDEKIVIHHKPLRSTWSQLSAVKRKGLSQTVSQEERKRQEAIFEVISSEHSYLLSLEILIRMFKNSKELSDTMTKTERHHLFSNITDVCEASKKFFIELEARHQNNIFIDDISDIVEKHTASTFDPYVKYCTNEVYQQRTLQKLLATNPSFKEVLSRIESHEDCRNLPMISFLILPMQRVTRLPLLMDTICQKTPKDSPKYEVCKRALKEVSKLVRLCNEGARKMERTEMMYTINSQLEFKIKPFPLVSSSRWLVKRGELTAYVEDTVLFSRRTSKQQVYFFLFNDVLIITKKKSEESYNVNDYSLRDQLLVESCDNEELNSSPGKNSSTMLYSRQSSASHLFTLTVLSNHANEKVEMLLGAETQSERARWITALGHSSGKPPADRTSLTQVEIVRSFTAKQPDELSLQVADVVLIYQRVSDGWYEGERLRDGERGWFPMECAKEITCQATIDKNVERMGRLLGLETNV
- binding: no binding

No constants are given. Whether binding was seen depends on the method and setting. In cells and extracts the contact can be indirect. Where a sequence is shown, tags or fusion partners need not be part of it.
